# Assay results: the supplement of paper PMC8728848
# The list shows a part of the results.
# B1: R2-fiber (Pseudomonas aeruginosa), Q9S576 (protein)
# chain: HHHHHHKVAKDLVVSLAYQVRTEDGVLVDESPVSAPLDYLHGHGSLISGLETALEGHEVGDKFDVAVGANDAYGQYDENLVQRVPKDVFMGVDELQVGMRFLAETDQGPVPVEITAVEDDHVVVDGNHMLAGQNLKFNVEVVAIREATEEELAHGHVHGAHDHHHDHDHDGCCGGHGHDHGHEHGGEGCCGGKGNGGCGCHENLYFQGVTAGMALAATDIPGLDASKLVSGVLAEQRLPVFARGLATAVSNSSDPNTATVPLMLTNHANGPVAGRYFYIQSMFYPDQNGNASQIATSYNATSEMYVRVSYAANPSIREWLPWQRCDIGGSFTKEADGELPGGVNLDSMVTSGWWSQSFTAQAASGANYPIVRAGLLHVYAASSNFIYQTYQAYDGESFYFRCRHSNTWFPWRRMWHGGDFNPSDYLLKSGFYWNALPGKPATFPPSAHNHDVGQLTSGILPLARGGVGSNTAAGARSTIGAGVPATASLGASGWWRDNDTGLIRQWGQVTCPADADASITFPIPFPTLCLGGYANQTSAFHPGTDASTGFRGATTTTAVIRNGYFAQAVLSWEAFGR
# What was measured:
# Experiment in all cases: glycan array binding signal (z-score within array); higher = stronger binding
# Settings in all cases: glycan notation: IUPAC condensed, linker removed
# [1] = target: Fuc(a1-2)[GalNAc(b1-3)]Gal
# Method in brief: (§1)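 Negative Z-scores can be read as non-binding. The Z-score is calculated within each array and then averaged across arrays of one protein sequence at different concentrations or buffers and across linkers. Arrays, 3228 in all, were curated from the Consortium for Functional Glycomics database and kept only where the protein sequence was available.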
# Fuc(a1-3)GlcNAc = target: Fuc(a1-3)GlcNAc
# Method in brief: as §1
# [2] = target: Fuc(a1-3)[Gal(b1-4)]Glc6S
# Method in brief: as §1
# [3] = target: Fuc(a1-3)[Gal(b1-4)]GlcNAc
# Method in brief: as §1
# [4] = target: Fuc(a1-3)[Gal(b1-4)]GlcNAc(b1-2)Man
# Method in brief: as §1
# [5] = target: Fuc(a1-3)[Gal(b1-4)]GlcNAc(b1-2)Man(a1-3)[Fuc(a1-3)[Gal(b1-4)]GlcNAc(b1-2)Man(a1-6)]Man(b1-4)GlcNAc(b1-4)GlcNAc
# Method in brief: as §1
# [6] = target: Fuc(a1-3)[Gal(b1-4)]GlcNAc(b1-2)Man(a1-3)[Fuc(a1-3)[Gal(b1-4)]GlcNAc(b1-2)Man(a1-6)]Man(b1-4)GlcNAc(b1-4)[Fuc(a1-6)]GlcNAc
# Method in brief: as §1
# [7] = target: Fuc(a1-3)[Gal(b1-4)]GlcNAc(b1-3)Gal(b1-3)[Fuc(a1-4)]GlcNAc
# Method in brief: as §1
# [8] = target: Fuc(a1-3)[Gal(b1-4)]GlcNAc(b1-3)Gal(b1-4)[Fuc(a1-3)]GlcNAc
# Method in brief: as §1
# [9] = target: Fuc(a1-3)[Gal(b1-4)]GlcNAc(b1-3)Gal(b1-4)[Fuc(a1-3)]GlcNAc(b1-3)Gal(b1-4)[Fuc(a1-3)]GlcNAc
# Method in brief: as §1
# [10] = target: Fuc(a1-3)[Gal(b1-4)]GlcNAc(b1-3)GalNAc
# Method in brief: as §1
# [11] = target: Fuc(a1-3)[Gal(b1-4)]GlcNAc(b1-6)GalNAc
# Method in brief: as §1
# [12] = target: Fuc(a1-3)[Gal(b1-4)]GlcNAc(b1-6)[Gal(b1-3)GlcNAc(b1-3)]Gal(b1-4)Glc
# Method in brief: as §1
# [13] = target: Fuc(a1-3)[Gal(b1-4)]GlcNAc6S
# Method in brief: as §1
# [14] = target: Fuc(a1-3)[Gal3S(b1-4)]Glc
# Method in brief: as §1
# [15] = target: Fuc(a1-3)[Gal3S(b1-4)]GlcNAc
# Method in brief: as §1
# [16] = target: Fuc(a1-3)[Gal3S(b1-4)]GlcNAc6S
# Method in brief: as §1
# [17] = target: Fuc(a1-3)[GalNAc(b1-4)]GlcNAc
# Method in brief: as §1
# [18] = target: Fuc(a1-3)[GalNAc(b1-4)]GlcNAc6S
# Method in brief: as §1
# Fuc(a1-4)GlcNAc = target: Fuc(a1-4)GlcNAc
# Method in brief: as §1
# Fuc(b1-3)GlcNAc = target: Fuc(b1-3)GlcNAc
# Method in brief: as §1
# Gal(a1-2)Gal = target: Gal(a1-2)Gal
# Method in brief: as §1
# Gal(a1-3)Gal = target: Gal(a1-3)Gal
# Method in brief: as §1
# Gal(a1-3)Gal(b1-3)GlcNAc = target: Gal(a1-3)Gal(b1-3)GlcNAc
# Method in brief: as §1
# [19] = target: Gal(a1-3)Gal(b1-3)GlcNAc(b1-2)Man
# Method in brief: as §1
# [20] = target: Gal(a1-3)Gal(b1-3)GlcNAc(b1-2)Man(a1-3)[Gal(a1-3)Gal(b1-3)GlcNAc(b1-2)Man(a1-6)]Man(b1-4)GlcNAc(b1-4)GlcNAc
# Method in brief: as §1
# [21] = target: Gal(a1-3)Gal(b1-3)GlcNAc(b1-3)GalNAc
# Method in brief: as §1
# [22] = target: Gal(a1-3)Gal(b1-3)GlcNAc(b1-6)GalNAc
# Method in brief: as §1
# [23] = target: Gal(a1-3)Gal(b1-3)[Fuc(a1-4)]GlcNAc(b1-2)Man(a1-3)[Gal(a1-3)Gal(b1-3)[Fuc(a1-4)]GlcNAc(b1-2)Man(a1-6)]Man(b1-4)GlcNAc(b1-4)GlcNAc
# Method in brief: as §1
# Gal(a1-3)Gal(b1-4)Glc = target: Gal(a1-3)Gal(b1-4)Glc
# Method in brief: as §1
binder,measurement,setting,value
B1,glycan array binding signal (z-score),[1],-0.256
same,glycan array binding signal (z-score),Fuc(a1-3)GlcNAc,-0.65
same,glycan array binding signal (z-score),[2],0.115
same,glycan array binding signal (z-score),[3],0.049
same,glycan array binding signal (z-score),[4],0.593
same,glycan array binding signal (z-score),[5],-0.104
same,glycan array binding signal (z-score),[6],0.47
same,glycan array binding signal (z-score),[7],0
same,glycan array binding signal (z-score),[8],-0.018
same,glycan array binding signal (z-score),[9],0.417
same,glycan array binding signal (z-score),[10],-0.536
same,glycan array binding signal (z-score),[11],2.09
same,glycan array binding signal (z-score),[12],-1.36
same,glycan array binding signal (z-score),[13],-0.596
same,glycan array binding signal (z-score),[14],1.21
same,glycan array binding signal (z-score),[15],-0.646
same,glycan array binding signal (z-score),[16],1.55
same,glycan array binding signal (z-score),[17],0.107
same,glycan array binding signal (z-score),[18],-0.098
same,glycan array binding signal (z-score),Fuc(a1-4)GlcNAc,0.08
same,glycan array binding signal (z-score),Fuc(b1-3)GlcNAc,0.241
same,glycan array binding signal (z-score),Gal(a1-2)Gal,-0.187
same,glycan array binding signal (z-score),Gal(a1-3)Gal,0.366
same,glycan array binding signal (z-score),Gal(a1-3)Gal(b1-3)GlcNAc,-0.628
same,glycan array binding signal (z-score),[19],-0.284
same,glycan array binding signal (z-score),[20],0.346
same,glycan array binding signal (z-score),[21],0.372
same,glycan array binding signal (z-score),[22],0.045
same,glycan array binding signal (z-score),[23],0.078
same,glycan array binding signal (z-score),Gal(a1-3)Gal(b1-4)Glc,-0.505

# Laid out differently: results already given
binder	measurement	setting	value
B1	glycan array binding signal (z-score)	[1]	-0.256
same	glycan array binding signal (z-score)	Gal(a1-3)Gal(b1-4)Glc	-0.505
